Results from the supplement of paper PMC8728848.
The list shows a part of the results.

What was measured:
Assay in all cases: glycan array binding signal (z-score within array); higher = stronger binding
Settings in all cases: glycan notation: IUPAC condensed, linker removed
[1] = molecular target: Gal(b1-4)GlcNAc(b1-2)Man(a1-3)[Gal(b1-4)GlcNAc(b1-2)Man(a1-6)]Man(b1-4)GlcNAc(b1-4)GlcNAc
Summary of the method: (§1)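 Columns mapping to the same glycan were averaged after glycan names were converted to IUPAC-condensed notation. The data come from 3228 arrays in the Consortium for Functional Glycomics database, limited to those with an available protein sequence. Binding is reported as a within-array Z-score averaged across arrays of one protein sequence and across linkers.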

[2] = molecular target: Gal(b1-4)GlcNAc(b1-2)Man(a1-3)[Gal(b1-4)GlcNAc(b1-2)Man(a1-6)]Man(b1-4)GlcNAc(b1-4)[Fuc(a1-6)]GlcNAc
Summary of the method: as §1

[3] = molecular target: Gal(b1-4)GlcNAc(b1-2)Man(a1-3)[Gal(b1-4)GlcNAc(b1-2)Man(a1-6)][Gal(b1-4)GlcNAc(b1-4)]Man(b1-4)GlcNAc(b1-4)[Fuc(a1-6)]GlcNAc
Summary of the method: as §1

[4] = molecular target: Gal(b1-4)GlcNAc(b1-2)Man(a1-3)[Gal(b1-4)GlcNAc(b1-2)Man(a1-6)][GlcNAc(b1-4)]Man(b1-4)GlcNAc(b1-4)[Fuc(a1-6)]GlcNAc
Summary of the method: as §1

[5] = molecular target: Gal(b1-4)GlcNAc(b1-2)Man(a1-3)[GlcNAc(b1-2)Man(a1-6)]Man(b1-4)GlcNAc(b1-4)GlcNAc
Summary of the method: as §1

[6] = molecular target: Gal(b1-4)GlcNAc(b1-2)Man(a1-3)[GlcNAc(b1-4)][Gal(b1-4)GlcNAc(b1-2)Man(a1-6)]Man(b1-4)GlcNAc(b1-4)GlcNAc
Summary of the method: as §1

[7] = molecular target: Gal(b1-4)GlcNAc(b1-2)Man(a1-3)[Man(a1-6)]Man(b1-4)GlcNAc(b1-4)GlcNAc
Summary of the method: as §1

[8] = molecular target: Gal(b1-4)GlcNAc(b1-2)Man(a1-6)Man(b1-4)GlcNAc(b1-4)GlcNAc
Summary of the method: as §1

[9] = molecular target: Gal(b1-4)GlcNAc(b1-2)Man(a1-6)[GlcNAc(b1-2)Man(a1-3)]Man(b1-4)GlcNAc(b1-4)GlcNAc
Summary of the method: as §1

[10] = molecular target: Gal(b1-4)GlcNAc(b1-2)Man(a1-6)[Man(a1-3)]Man(b1-4)GlcNAc(b1-4)GlcNAc
Summary of the method: as §1

[11] = molecular target: Gal(b1-4)GlcNAc(b1-2)[Gal(b1-4)GlcNAc(b1-4)]Man(a1-3)[Gal(b1-4)GlcNAc(b1-2)Man(a1-6)]Man(b1-4)GlcNAc(b1-4)GlcNAc
Summary of the method: as §1

[12] = molecular target: Gal(b1-4)GlcNAc(b1-2)[Gal(b1-4)GlcNAc(b1-4)]Man(a1-3)[Gal(b1-4)GlcNAc(b1-2)[Gal(b1-4)GlcNAc(b1-6)]Man(a1-6)]Man(b1-4)GlcNAc(b1-4)GlcNAc
Summary of the method: as §1

[13] = molecular target: Gal(b1-4)GlcNAc(b1-2)[Gal(b1-4)GlcNAc(b1-4)]Man(a1-3)[GlcNAc(b1-4)][Gal(b1-4)GlcNAc(b1-2)Man(a1-6)]Man(b1-4)GlcNAc(b1-4)GlcNAc
Summary of the method: as §1

[14] = molecular target: Gal(b1-4)GlcNAc(b1-2)[Gal(b1-4)GlcNAc(b1-4)]Man(a1-3)[GlcNAc(b1-4)][Gal(b1-4)GlcNAc(b1-2)[Gal(b1-4)GlcNAc(b1-6)]Man(a1-6)]Man(b1-4)GlcNAc(b1-4)GlcNAc
Summary of the method: as §1

[15] = molecular target: Gal(b1-4)GlcNAc(b1-2)[Gal(b1-4)GlcNAc(b1-6)]Man(a1-6)[Gal(b1-4)GlcNAc(b1-2)Man(a1-3)]Man(b1-4)GlcNAc(b1-4)GlcNAc
Summary of the method: as §1

[16] = molecular target: Gal(b1-4)GlcNAc(b1-2)[Gal(b1-4)GlcNAc(b1-6)]Man(a1-6)[Gal(b1-4)GlcNAc(b1-2)Man(a1-3)]Man(b1-4)GlcNAc(b1-4)[Fuc(a1-6)]GlcNAc
Summary of the method: as §1

[17] = molecular target: Gal(b1-4)GlcNAc(b1-2)[Gal(b1-4)GlcNAc(b1-6)]Man(a1-6)[GlcNAc(b1-4)][Gal(b1-4)GlcNAc(b1-2)Man(a1-3)]Man(b1-4)GlcNAc(b1-4)GlcNAc
Summary of the method: as §1

[18] = molecular target: Gal(b1-4)GlcNAc(b1-2)[Gal(b1-4)GlcNAc(b1-6)]Man(a1-6)[GlcNAc(b1-4)][Gal(b1-4)GlcNAc(b1-2)[Gal(b1-4)GlcNAc(b1-4)]Man(a1-3)]Man(b1-4)GlcNAc(b1-4)[Fuc(a1-6)]GlcNAc
Summary of the method: as §1

[19] = molecular target: Gal(b1-4)GlcNAc(b1-3)Gal(b1-3)GalNAc
Summary of the method: as §1

B1: AT3G09350(27) (Arabidopsis thaliana), Q84J81 (protein)
chain: MAKDGPNWDGLLKWSLSHADGTRPTRQLSEEDRKWFMEAMQSQTVDVVKRMKEITLVMQTPEQVLVEHGVTPEDIQDLLDELQEHVESIDMANDLHSIGGLVPLLSFLKNSHANIRAKAADVVSTIVQNNPRSQELVMETNALESLLSNFTSDTDIHARTQALGAISSLIRHNKPGVTAFKLANGYAGLRDALASDSVRFQRKALNLLQYLLQEDDSDRSIATGLGFPRVMMHLASSDDAEIREAALRGLLELSREKNDGSSSIDKSDEKLRQLLEERIKGITLMSQEDLETVKEERQLVDLLWSICYNEPSSLREKGLVVLPGEDALPPDVASKLFEPPLRASAANRNATEKKDEPMKLLGP
- glycan array binding signal (z-score) [1]: -0.354
- glycan array binding signal (z-score) [2]: 0.1
- glycan array binding signal (z-score) [3]: -0.391
- glycan array binding signal (z-score) [4]: -0.678
- glycan array binding signal (z-score) [5]: -0.173
- glycan array binding signal (z-score) [6]: -0.132
- glycan array binding signal (z-score) [7]: 0.672
- glycan array binding signal (z-score) [8]: -0.149
- glycan array binding signal (z-score) [9]: 0.134
- glycan array binding signal (z-score) [10]: 0.115
- glycan array binding signal (z-score) [11]: 0.33
- glycan array binding signal (z-score) [12]: 0.086
- glycan array binding signal (z-score) [13]: 0.348
- glycan array binding signal (z-score) [14]: -0.3
- glycan array binding signal (z-score) [15]: -0.236
- glycan array binding signal (z-score) [16]: -0.389
- glycan array binding signal (z-score) [17]: -0.293
- glycan array binding signal (z-score) [18]: 0.66
- glycan array binding signal (z-score) [19]: 0.008
